For the assay, the system named is A549. Kind of assay: cells. The following applies: Homo sapiens, A549, read-out: IC50 ± SEM (nM) A549.

The term IC50 denotes the point on the concentration scale where inhibition reaches its midpoint. Turning to `CC(=O)O[C@H]1C(=O)[C@@]2(C)[C@H]([C@H](OC(=O)c3ccccc3)[C@]3(O)C[C@H](OC(=O)[C@H](O)[C@@H](NC(=O)c4ccccc4)c4ccccc4)C(C)=C1C3(C)C)[C@]1(OC(C)=O)CO[C@@H]1C[C@@H]2O` [Paclitaxel, reference compound], the half-maximal inhibitory concentration (IC50) turned out to be 9.8 ± 2.1 nM.

The record behind these values is patent US20230286995A1, “METABOLICALLY STABLE PYRIMIDINYL DIHYDROQUINOXALINONES AS TUBULIN POLYMERIZATION INHIBITORS” (UNIVERSITY OF TENNESSEE RESEARCH FOUNDATION, priority 2022, published 2023).
